Measured values: publication PMC7862611, “Ribosome-bound Get4/5 facilitates the capture of tail-anchored proteins by Sgt2 in yeast” (Nature Communications, 2021)

Chains of the proteins cited; added tags and fusions are not shown.
UniProt P0CX41: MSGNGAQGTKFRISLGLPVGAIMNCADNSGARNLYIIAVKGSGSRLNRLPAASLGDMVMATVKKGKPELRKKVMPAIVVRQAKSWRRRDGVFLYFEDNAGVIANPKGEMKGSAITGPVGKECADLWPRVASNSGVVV
UniProt P53221: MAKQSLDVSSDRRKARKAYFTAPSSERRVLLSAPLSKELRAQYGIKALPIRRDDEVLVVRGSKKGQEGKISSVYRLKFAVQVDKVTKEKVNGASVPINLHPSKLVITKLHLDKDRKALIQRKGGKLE
UniProt P49166: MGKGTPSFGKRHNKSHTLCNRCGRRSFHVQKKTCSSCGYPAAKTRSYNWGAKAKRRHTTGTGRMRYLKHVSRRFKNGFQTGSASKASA

T1: His6Get5 (yeast (S. cerevisiae)) (UniProt Q12285)
T1 sequence: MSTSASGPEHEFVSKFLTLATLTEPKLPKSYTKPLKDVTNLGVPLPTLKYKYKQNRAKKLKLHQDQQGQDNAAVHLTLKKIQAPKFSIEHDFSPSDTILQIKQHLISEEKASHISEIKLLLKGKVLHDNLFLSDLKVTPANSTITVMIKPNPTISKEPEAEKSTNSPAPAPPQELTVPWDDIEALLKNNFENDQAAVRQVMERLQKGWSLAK

B1: Rpl20a (protein, UniProt P0CX23 1-172)
chain: MAHFKEYQVIGRRLPTESVPEPKLFRMRIFASNEVIAKSRYWYFLQKLHKVKKASGEIVSINQINEAHPTKVKNFGVWVRYDSRSGTHNMYKEIRDVSRVAAVETLYQDMAARHRARFRSIHILKVAEIEKTADVKRQYVKQFLTKDLKFPLPHRVQKSTKTFSYKRPSTFY
B2: Sgt2 (protein, UniProt Q12118 1-346)
chain: MSASKEEIAALIVNYFSSIVEKKEISEDGADSLNVAMDCISEAFGFEREAVSGILGKSEFKGQHLADILNSASRVPESNKKDDAENVEINIPEDDAETKAKAEDLKMQGNKAMANKDYELAINKYTEAIKVLPTNAIYYANRAAAHSSLKEYDQAVKDAESAISIDPSYFRGYSRLGFAKYAQGKPEEALEAYKKVLDIEGDNATEAMKRDYESAKKKVEQSLNLEKTVPEQSRDADVDASQGASAGGLPDLGSLLGGGLGGLMNNPQLMQAAQKMMSNPGAMQNIQKMMQDPSIRQMAEGFASGGGTPNLSDLMNNPALRNMAGNLFGGAGAQSTDETPDNENKQ
B3: Rps19a (protein, UniProt P07280 1-144)
chain: MPGVSVRDVAAQDFINAYASFLQRQGKLEVPGYVDIVKTSSGNEMPPQDAEGWFYKRAASVARHIYMRKQVGVGKLNKLYGGAKSRGVRPYKHIDASGSINRKVLQALEKIGIVEISPKGGRRISENGQRDLDRIAAQTLEEDE

These molecules were tested against T1, His6Get5 (yeast (S. cerevisiae)) (assay: cross-linking + affinity purification with mass spectrometry; as a6 (BS3, denaturing Ni-NTA of His6Get5), gel slices, trypsin, LC-MS-MS; compared with untagged Get5).

binding, binds:
Rpl23a (from UniProt P0CX41 1-137)
Rpl26 (from UniProt P53221 1-127)
Rpl37a (from UniProt P49166 1-88)
Rps29a/b (S. cerevisiae (endogenous in yeast))
B1
B2
B3

These are yes or no findings as the source states them, for the method shown. Binding seen in cells or lysates may run through a third protein. Here binding means that the protein was enriched with, or labelled near, the bait; the list need not be complete. Where a sequence is shown, tags or fusion partners need not be part of it.
